Results from paper PMC7819943, “Rice protein-binding microarrays: a tool to detect cis-acting elements near promoter regions in rice”.
The other results are listed elsewhere or left out.

molecular target: T1, OsSMF1 (Oryza sativa, UniProt Q6ZLB0 1-436); assay: protein-binding microarray (RPBM); PBS, 2% BSA, 51.3 ng/ul salmon testes DNA, 50 uM zinc acetate, 200 nM TF, 25 C, 1 h; high values mean tight binding; conditions: protein: recombinant; tags: N-terminal polyhistidine and DsRed monomer fusion (pET32a); chain copies: 2; label: CyDye5-dUTP incorporated in the synthesized complementary strand; 3' TTTTT single-stranded linker to array surface; dsDNA, one strand shown
T1 sequence: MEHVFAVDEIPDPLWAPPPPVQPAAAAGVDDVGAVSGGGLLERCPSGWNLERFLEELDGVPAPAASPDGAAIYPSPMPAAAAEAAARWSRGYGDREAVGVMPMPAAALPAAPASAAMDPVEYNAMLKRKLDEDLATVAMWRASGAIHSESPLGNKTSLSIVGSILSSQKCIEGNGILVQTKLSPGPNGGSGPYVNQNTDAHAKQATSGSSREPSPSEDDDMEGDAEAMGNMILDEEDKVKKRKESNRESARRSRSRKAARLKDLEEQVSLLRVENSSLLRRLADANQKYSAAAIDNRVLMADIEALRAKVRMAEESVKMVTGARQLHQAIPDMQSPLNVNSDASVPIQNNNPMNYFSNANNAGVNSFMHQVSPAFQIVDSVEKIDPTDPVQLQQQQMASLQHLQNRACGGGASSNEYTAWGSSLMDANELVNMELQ
In short: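 The binding signal is fluorescence intensity per feature, in arbitrary units, read on an Axon 4000B scanner. Polyhistidine- and DsRed-tagged transcription factors (N-terminal fusions) from E. coli BL21-CodonPlus were purified on Ni–NTA and applied at 200 nM for 1 h at 25 °C to a double-stranded, BSA-blocked custom Agilent array in buffer with 50 µM zinc acetate.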

Sequence	binding signal
CTGAAATTCGAAATTTAAAATAAGGAATATTAGAAGTAGACGGAGTCACCTAGTGCAG	26300 fluorescence intensity (a.u.)
CCACGGCACCTTCTCGACCCTGACGCGTGGACCCTCTAGGCGGAGTCACCTAGTGCAG	6060 fluorescence intensity (a.u.)
AAGGCGCAAAGGGGAAGAGGGGAGCACGACCACCCTCCTCCGGAGTCACCTAGTGCAG	34200 fluorescence intensity (a.u.)
TTTAAAAGGTCCCCGCTTCAGCTTATTATCAGGTATATACCGGAGTCACCTAGTGCAG	23100 fluorescence intensity (a.u.)
GAGAAATATGGGCCACTGACGTGTGGGCCCCACCTAATCACGGAGTCACCTAGTGCAG	5610 fluorescence intensity (a.u.)
CCGGCGGCAACACGTGGACCCTCGCGCGCTTGGGACTTGCCGGAGTCACCTAGTGCAG	6140 fluorescence intensity (a.u.)
CGGTTATAGTGTGAGTGTGTGCTTGTGTCATGGAATGTGACGGAGTCACCTAGTGCAG	4250 fluorescence intensity (a.u.)
ACATCTTCGTCGGCGGCCGCGTCGGCAGCGACTCTCACCTCGGAGTCACCTAGTGCAG	4850 fluorescence intensity (a.u.)
TTCGCGTTACGTAGCGATTATGTCGTGTATAGCTGTGTGTCGGAGTCACCTAGTGCAG	3360 fluorescence intensity (a.u.)
CGACAACCATGCACGGCCTGGATGAGGTACCAGATACCTCCGGAGTCACCTAGTGCAG	29100 fluorescence intensity (a.u.)
ATCTAAAACAATGATGACGCGGAAAGCTTGTGAAGAAATCCGGAGTCACCTAGTGCAG	9090 fluorescence intensity (a.u.)
TTCTGGTTTTAGCCCATGGAAAGCAAACTAGAGTTTGTCCCGGAGTCACCTAGTGCAG	4410 fluorescence intensity (a.u.)
GAGATATGCCATCAGTATCTCAATGACATGTAGGACCCACCGGAGTCACCTAGTGCAG	3550 fluorescence intensity (a.u.)
GTGTCGCCGGACCTGCTCGCCGCAGAGCTACCGGCCAGAGCGGAGTCACCTAGTGCAG	32900 fluorescence intensity (a.u.)
ATCTGCAATCCAACGGTCAGGTGGAATAGAGGTGATGTGGCGGAGTCACCTAGTGCAG	5160 fluorescence intensity (a.u.)
TAGCCGCCACGCGGCGAATCCTCTCCTCCCCTGCGCGGCGCGGAGTCACCTAGTGCAG	4890 fluorescence intensity (a.u.)
GTCGTGGGCGGGAGGTGGTGGTGGTGGTGCTGCTGCATTGCGGAGTCACCTAGTGCAG	3640 fluorescence intensity (a.u.)
TTGCCCTTGCGATGACGAAAAGCTCTTCGGTGGCAACTTGCGGAGTCACCTAGTGCAG	3970 fluorescence intensity (a.u.)
GCCACGTCGTGTCCGTGTGACATGCCACATCAGCACCACACGGAGTCACCTAGTGCAG	28400 fluorescence intensity (a.u.)
TAATCGTGGTCTTGCCTACGTGGCATACTACGTGGGCGATCGGAGTCACCTAGTGCAG	20500 fluorescence intensity (a.u.)
CCTCGTAAACCCTGCTTGATGAGTTGGCACTGGCAGGTCTCGGAGTCACCTAGTGCAG	8280 fluorescence intensity (a.u.)

Sequence	binding signal
CTGAATATGCCCATAGTCTATCATTATAAAGCCTATAATTCGGAGTCACCTAGTGCAG	19100 fluorescence intensity (a.u.)
CGGGAGCAGAGGCGGTGACGCCGCCGGCGAGCAGCGGAGGCGGAGTCACCTAGTGCAG	3380 fluorescence intensity (a.u.)
GCTATATATCTGTAATACACGTAACGTATATTGTTCTCGCCGGAGTCACCTAGTGCAG	4010 fluorescence intensity (a.u.)
GTGAAACACGCTTGCATGCATGTGCGCTGGCCACACTCAGCGGAGTCACCTAGTGCAG	3690 fluorescence intensity (a.u.)
GCCCACTTGCAGTGACACGAACGGACTGCCAGCTCAGCTACGGAGTCACCTAGTGCAG	12200 fluorescence intensity (a.u.)
AGCCCGCTCGTCCTCCGCTCACCGCCGACGCGGACCAGCACGGAGTCACCTAGTGCAG	3620 fluorescence intensity (a.u.)
ATGGTTGCCATCAGAGATATCCTTGTTGTCACTGCACATGCGGAGTCACCTAGTGCAG	6050 fluorescence intensity (a.u.)
CATTTGTCATGTAGTTAGATGCTGACGTTTAGGCTACAGTCGGAGTCACCTAGTGCAG	3340 fluorescence intensity (a.u.)
ATGACTTTCTCTTTGTTGCCGCGTGGTAGGAGCAATCGCACGGAGTCACCTAGTGCAG	3800 fluorescence intensity (a.u.)
CTTCGTCTTCCTCCCTCCTCGTCACGTCAGGCTGCCAACGCGGAGTCACCTAGTGCAG	6080 fluorescence intensity (a.u.)
GCTGCCCCTCGTCACCGCCCGTCGCGGTTGCCCCTCATCGCGGAGTCACCTAGTGCAG	3980 fluorescence intensity (a.u.)
ATGCTTCGTAGTGAACTTATCCTAAATAGCAGCAGCTTGTCGGAGTCACCTAGTGCAG	38000 fluorescence intensity (a.u.)
CATGTCGTACGCCATCTCTCATCGCTGCGTCCAATTAAATCGGAGTCACCTAGTGCAG	3650 fluorescence intensity (a.u.)
TTCCGGCGAAACGGGCATGACGTCATCCAGCATGTGGGACCGGAGTCACCTAGTGCAG	13000 fluorescence intensity (a.u.)
GTGCCAGCTTGAGAGCGCTTTTAGGATGCCACATGTCAGCCGGAGTCACCTAGTGCAG	5270 fluorescence intensity (a.u.)
TTTCGAAACCCTAAACCGTATCAAGCAAGATCGATGTGCACGGAGTCACCTAGTGCAG	24000 fluorescence intensity (a.u.)
CGACGGGACGGCGGCGCCCTCGTCACTCCACATCTGACTCCGGAGTCACCTAGTGCAG	3460 fluorescence intensity (a.u.)
TTTCCGCTATCGCGGTGCGCGCGGAAGGCCCCGCTGCGGCCGGAGTCACCTAGTGCAG	39200 fluorescence intensity (a.u.)
TATGGCTGACGTGGCTCCTACGTGGCTCCTTTGACTAGGTCGGAGTCACCTAGTGCAG	33800 fluorescence intensity (a.u.)
GCCGCACGCTAGGCCCCGCGCGTACACGTACGCGCGCTGCCGGAGTCACCTAGTGCAG	6780 fluorescence intensity (a.u.)
ATAAATACCAGCTTTCCAACCATCACTTATTCACTTGCCCCGGAGTCACCTAGTGCAG	3740 fluorescence intensity (a.u.)
